Reference: paper PMC5345131
These are yes or no findings as the source states them, for the method shown. In cells and extracts the contact can be indirect. Some results given as binding are weak or reduced against the parent protein; the word gives no strength. For part of these data: Sequences can lack the tags named with a protein.

Amino acid sequences for entries named in this document (tags omitted). Residues count along the entry.
UniProt P34998, residues 24-415: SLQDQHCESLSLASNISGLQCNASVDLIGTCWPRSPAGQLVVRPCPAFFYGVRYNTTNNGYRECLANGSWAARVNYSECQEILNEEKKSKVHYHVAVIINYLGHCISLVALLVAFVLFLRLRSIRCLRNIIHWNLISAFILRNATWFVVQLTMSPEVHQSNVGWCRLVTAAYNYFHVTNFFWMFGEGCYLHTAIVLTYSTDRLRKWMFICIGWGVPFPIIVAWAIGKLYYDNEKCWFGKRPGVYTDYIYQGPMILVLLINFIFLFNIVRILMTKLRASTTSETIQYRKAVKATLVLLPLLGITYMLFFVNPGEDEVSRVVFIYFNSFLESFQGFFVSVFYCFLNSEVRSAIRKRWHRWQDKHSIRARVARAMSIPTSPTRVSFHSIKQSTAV
UniProt P32121: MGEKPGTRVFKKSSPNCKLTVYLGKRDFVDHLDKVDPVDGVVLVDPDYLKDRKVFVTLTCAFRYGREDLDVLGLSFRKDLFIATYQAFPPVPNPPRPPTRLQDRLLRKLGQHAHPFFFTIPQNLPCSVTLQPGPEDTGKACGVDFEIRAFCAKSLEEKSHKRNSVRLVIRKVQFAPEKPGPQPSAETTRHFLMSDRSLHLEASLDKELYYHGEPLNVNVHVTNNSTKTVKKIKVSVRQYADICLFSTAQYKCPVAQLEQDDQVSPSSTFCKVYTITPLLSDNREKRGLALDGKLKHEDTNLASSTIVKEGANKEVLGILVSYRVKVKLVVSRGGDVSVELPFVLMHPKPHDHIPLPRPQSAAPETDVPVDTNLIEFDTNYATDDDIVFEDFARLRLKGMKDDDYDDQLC
UniProt Q96QZ7: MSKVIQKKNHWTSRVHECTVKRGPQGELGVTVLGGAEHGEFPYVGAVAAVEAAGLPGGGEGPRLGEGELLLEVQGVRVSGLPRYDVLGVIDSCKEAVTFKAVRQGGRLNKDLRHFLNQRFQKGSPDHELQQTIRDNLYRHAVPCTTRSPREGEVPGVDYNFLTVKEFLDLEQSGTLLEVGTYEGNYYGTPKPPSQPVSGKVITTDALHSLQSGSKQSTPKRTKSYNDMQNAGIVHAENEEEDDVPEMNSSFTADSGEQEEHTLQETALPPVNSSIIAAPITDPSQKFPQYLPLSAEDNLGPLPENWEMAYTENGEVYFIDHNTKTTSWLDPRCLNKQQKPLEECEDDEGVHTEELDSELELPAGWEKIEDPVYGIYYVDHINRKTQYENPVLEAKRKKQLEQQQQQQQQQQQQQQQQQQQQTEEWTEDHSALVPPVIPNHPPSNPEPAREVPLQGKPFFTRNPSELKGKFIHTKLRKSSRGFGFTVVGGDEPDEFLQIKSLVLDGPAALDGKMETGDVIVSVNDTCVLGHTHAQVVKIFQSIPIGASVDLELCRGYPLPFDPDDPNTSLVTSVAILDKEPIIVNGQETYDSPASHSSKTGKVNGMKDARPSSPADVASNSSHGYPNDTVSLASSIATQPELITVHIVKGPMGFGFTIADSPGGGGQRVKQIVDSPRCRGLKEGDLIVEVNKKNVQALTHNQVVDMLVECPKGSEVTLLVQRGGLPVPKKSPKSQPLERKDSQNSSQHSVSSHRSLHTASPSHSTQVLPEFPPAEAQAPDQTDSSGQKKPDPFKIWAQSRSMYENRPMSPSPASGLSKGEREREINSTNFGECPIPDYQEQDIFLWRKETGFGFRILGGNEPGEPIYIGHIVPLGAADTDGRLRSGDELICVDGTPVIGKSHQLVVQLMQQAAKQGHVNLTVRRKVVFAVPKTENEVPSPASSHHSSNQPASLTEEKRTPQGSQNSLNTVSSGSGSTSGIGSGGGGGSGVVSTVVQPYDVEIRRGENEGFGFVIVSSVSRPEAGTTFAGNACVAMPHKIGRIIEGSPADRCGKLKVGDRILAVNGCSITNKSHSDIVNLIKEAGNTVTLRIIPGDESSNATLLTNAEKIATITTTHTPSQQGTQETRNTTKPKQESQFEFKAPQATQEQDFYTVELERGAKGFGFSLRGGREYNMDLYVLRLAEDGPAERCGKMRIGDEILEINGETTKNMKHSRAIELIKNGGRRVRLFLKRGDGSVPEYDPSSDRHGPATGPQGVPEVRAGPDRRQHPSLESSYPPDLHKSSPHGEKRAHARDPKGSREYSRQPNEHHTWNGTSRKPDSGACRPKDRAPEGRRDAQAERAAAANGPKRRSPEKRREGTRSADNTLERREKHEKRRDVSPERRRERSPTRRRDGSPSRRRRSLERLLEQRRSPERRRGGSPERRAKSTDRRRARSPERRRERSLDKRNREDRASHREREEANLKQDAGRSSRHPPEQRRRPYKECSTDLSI

Key:
[1] = molecular target: YFP-tagged CRFR1 (UniProt P34998); assay: FRET or BRET; Living HEK293 cells, 72 h after transfection; β-arrestin-Rluc as donor, CRFR1-YFP as acceptor; 5 μM coelenterazine; increasing concentrations of CRF, or 500 nM CRF over time; with MAGI-1, MAGI-2 or MAGI-3 overexpressed or knocked down by siRNA
[2] = molecular target: HA-tagged CRFR1 (corticotropin-releasing factor receptor 1), wild type (UniProt P34998); assay: co-IP; HEK293 cells co-transfected with HA-CRFR1 (WT or ΔTAV) and the MAGI construct; with or without 100 nM CRF for 30 min; lysis in 50 mM Tris pH 8.0, 150 mM NaCl, 0.1% Triton X-100; 300 μg protein with mouse anti-HA and protein G-Sepharose overnight at 4°C; blots with anti-V5 (MAGI-1) or anti-MAGI-3

Row | Molecule | binding [1] | binding [2]
1 | rLuc-tagged β-arrestin2 (from UniProt P32121 1-409) | binds | 
2 | His-MAGI-1-V5 (membrane-associated guanylate kinase with inverted orientation 1) (from UniProt Q96QZ7 1-1491) |  | binds
3 | His-MAGI-3 (membrane-associated guanylate kinase with inverted orientation 3) (protein, UniProt Q5TCQ9 1-1481) MSKTLKKKKHWLSKVQECAVSWAGPPGDFGAEIRGGAERGEFPYLGRLREEPGGGTCCVVSGKAPSPGDVLLEVNGTPVSGLTNRDTLAVIRHFREPIRLKTVKPGKVINKDLRHYLSLQFQKGSIDHKLQQVIRDNLYLRTIPCTTRAPRDGEVPGVDYNFISVEQFKALEESGALLESGTYDGNFYGTPKPPAEPSPFQPDPVDQVLFDNEFDAESQRKRTTSVSKMERMDSSLPEEEEDEDKEAINGSGNAENRERHSESSDWMKTVPSYNQTNSSMDFRNYMMRDETLEPLPKNWEMAYTDTGMIYFIDHNTKTTTWLDPRLCKKAKAPEDCEDGELPYGWEKIEDPQYGTYYVDHLNQKTQFENPVEEAKRKKQLGQVEIGSSKPDMEKSHFTRDPSQLKGVLVRASLKKSTMGFGFTIIGGDRPDEFLQVKNVLKDGPAAQDGKIAPGDVIVDINGNCVLGHTHADVVQMFQLVPVNQYVNLTLCRGYPLPDDSEDPVVDIVAATPVINGQSLTKGETCMNPQDFKPGAMVLEQNGKSGHTLTGDGLNGPSDASEQRVSMASSGSSQPELVTIPLIKGPKGFGFAIADSPTGQKVKMILDSQWCQGLQKGDIIKEIYHQNVQNLTHLQVVEVLKQFPVGADVPLLILRGGPPSPTKTAKMKTDKKENAGSLEAINEPIPQPMPFPPSIIRSGSPKLDPSEVYLKSKTLYEDKPPNTKDLDVFLRKQESGFGFRVLGGDGPDQSIYIGAIIPLGAAEKDGRLRAADELMCIDGIPVKGKSHKQVLDLMTTAARNGHVLLTVRRKIFYGEKQPEDDSSQAFISTQNGSPRLNRAEVPARPAPQEPYDVVLQRKENEGFGFVILTSKNKPPPGVIPHKIGRVIEGSPADRCGKLKVGDHISAVNGQSIVELSHDNIVQLIKDAGVTVTLTVIAEEEHHGPPSGTNSARQSPALQHRPMGQSQANHIPGDRSALEGEIGKDVSTSYRHSWSDHKHLAQPDTAVISVVGSRHNQNLGCYPVELERGPRGFGFSLRGGKEYNMGLFILRLAEDGPAIKDGRIHVGDQIVEINGEPTQGITHTRAIELIQAGGNKVLLLLRPGTGLIPDHGDWDINNPSSSNVIYDEQSPLPPSSHFASIFEESHVPVIEESLRVQICEKAEELKDIVPEKKSTLNENQPEIKHQSLLQKNVSKRDPPSSHGHSNKKNLLKVENGVTRRGRSVSPKKPASQHSEEHLDKIPSPLKNNPKRRPRDQSLSPSKGENKSCQVSTRAGSGQDQCRKSRGRSASPKKQQKIEGSKAPSNAEAKLLEGKSRRIAGYTGSNAEQIPDGKEKSDVIRKDAKQNQLEKSRTRSPEKKIKRMVEKSLPSKMTNKTTSKEVSENEKGKKVTTGETSSSNDKIGENVQLSEKRLKQEPEEKVVSNKTEDHKGKELEAADKNKETGRFKPESSSPVKKTLITPGPWKVPSGNKVTGTIGMAEKRQ |  | binds
